{"source": "patent US20150361139A1", "about": "(SANDOZ AG, priority 2013, published 2015)", "experiment": "peptide synthesis", "conditions": "purification step, acetate (starting material), no acetate counterion detected after crystallisation", "note": "Ends that are not written are not given here."}
{"sequence": "CCEYCCNPACTGCY (cysteine pairing not given here)", "values": [{"measurement": "final HPLC purity", "setting": "run 1", "value": 98.70, "unit": "%"}, {"measurement": "final HPLC purity", "setting": "run 2", "value": 99, "unit": "%"}, {"measurement": "step yield", "value": 90, "unit": "%"}]}
